Results: the supplement of paper PMC4604168 (melanoma cell lines)
The other results are listed elsewhere or left out. Single values are uncertain, as repeats are few or missing.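 Cells were imaged in 1,536-well plates, and nuclei stained with an antibody against cleaved PARP were counted against all DNA-stained nuclei to give the apoptosis fraction. Screening doses were chosen to leave most cells alive, and resting and induced cleaved-PARP levels differ strongly between cell lines.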

How the values were obtained:
Test in all cases: cleaved PARP positive nuclei fraction relative to DMSO control; melanoma cells; higher = more apoptosis
Conditions in all cases: library dose: low library concentration; 72 h
[1] = system: 501Mel
[2] = system: A101D
[3] = system: A2058
[4] = system: A375
[5] = system: C32
[6] = system: CBRC008 (line from a melanoma biopsy)
[7] = system: CBRC014 (line from a melanoma biopsy)
[8] = system: CBRC016 (line from a melanoma biopsy)
[9] = system: CBRC017 (line from a melanoma biopsy)
[10] = system: CBRC034 (line from a melanoma biopsy)
[11] = system: COLO792
[12] = system: COLO800
[13] = system: COLO829
[14] = system: G361
[15] = system: IPC-298
[16] = system: IST-MEL1
[17] = system: LB2518-MEL
[18] = system: LOXIMVI
[19] = system: MEL-HO

Row | Structure (SMILES) | cleaved PARP positive nuclei fraction [1] [%] | cleaved PARP positive nuclei fraction [2] [%] | cleaved PARP positive nuclei fraction [3] [%] | cleaved PARP positive nuclei fraction [4] [%] | cleaved PARP positive nuclei fraction [5] [%] | cleaved PARP positive nuclei fraction [6] [%] | cleaved PARP positive nuclei fraction [7] [%] | cleaved PARP positive nuclei fraction [8] [%] | cleaved PARP positive nuclei fraction [9] [%] | cleaved PARP positive nuclei fraction [10] [%] | cleaved PARP positive nuclei fraction [11] [%] | cleaved PARP positive nuclei fraction [12] [%] | cleaved PARP positive nuclei fraction [13] [%] | cleaved PARP positive nuclei fraction [14] [%] | cleaved PARP positive nuclei fraction [15] [%] | cleaved PARP positive nuclei fraction [16] [%] | cleaved PARP positive nuclei fraction [17] [%] | cleaved PARP positive nuclei fraction [18] [%] | cleaved PARP positive nuclei fraction [19] [%]
1 | O=c1[nH]nc(Sc2ncc([N+](=O)[O-])s2)n1-c1ccc2c(c1)OCCO2 + NC(=O)c1ccc(N(C(N)=O)c2c(F)cccc2F)nc1-c1ccc(F)cc1F [VX702] (first compound 0.2 µM, partner dose 0.4 µM) | 66.5 | 86.9 | 55.4 | 163 | 72.8 | 112 | 124 | 711 | 101 | 159 | 54.1 | 147 | 42.7 | 83.7 | 166 | 281 | 98.8 | 23.4 | 119
2 | O=C(Nc1cc(C(F)(F)F)cc(C(F)(F)F)c1)c1cc(Cl)ccc1O + Cc1ccc(Nc2nccc(N(C)c3ccc4c(C)n(C)nc4c3)n2)cc1S(N)(=O)=O [Pazopanib] (first compound 0.016 µM, partner dose 0.4 µM) | 120 | 37.6 | 69.1 | 182 | 72.1 | 124 | 99.2 | 86.5 | 100 | 32 | 46.5 | 94.4 | 84.1 | 99.4 | 47.9 | 61.8 | 133 | 118 | 107
3 | CC[C@]1(O)C[C@H]2CN(CCc3c([nH]c4ccccc34)[C@@](C(=O)OC)(c3cc4c(cc3OC)N(C=O)[C@H]3[C@@](O)(C(=O)OC)[C@H](OC(C)=O)[C@]5(CC)C=CCN6CC[C@]43[C@@H]65)C2)C1 [vincristine] + CN(c1ncccc1CNc1nc(Nc2ccc3c(c2)CC(=O)N3)ncc1C(F)(F)F)S(C)(=O)=O [PF562271] (first compound 0.0001 µM, partner dose 0.08 µM) | 140 | 278 | 318 | 273 | 95.8 | 298 | 85.6 | 184 | 80.4 | 109 | 98.9 | 108 | 132 | 105 | 44.6 | 138 | 118 | 136 | 130
4 | O=C(/C=C/c1cccnc1)NCCCCC1CCN(C(=O)c2ccccc2)CC1 + CS(=O)(=O)c1ccc(C(=O)Nc2ccc(Cl)c(-c3ccccn3)c2)c(Cl)c1 [vismodegib] (first compound 0.01 µM, partner dose 1 µM) | 141 | 133 | 248 | 272 | 65.9 | 5140 | 120 | 1460 | 535 | 1200 | 798 | 235 | 261 | 4110 | 458 | 190 | 254 | 205 | 185
5 | O=C(/C=C/c1cccnc1)NCCCCC1CCN(C(=O)c2ccccc2)CC1 + C=C(c1ccc(C(=O)O)cc1)c1cc2c(cc1C)C(C)(C)CCC2(C)C [Bexarotene] (first compound 0.01 µM, partner dose 2 µM) | 107 | 85.9 | 101 | 68 | 68.1 | 2280 | 126 | 334 | 522 | 2620 | 1300 | 201 | 363 | 3650 | 289 | 185 | 120 | 86 | 95.8
6 | CC[C@]1(O)C[C@H]2CN(CCc3c([nH]c4ccccc34)[C@@](C(=O)OC)(c3cc4c(cc3OC)N(C=O)[C@H]3[C@@](O)(C(=O)OC)[C@H](OC(C)=O)[C@]5(CC)C=CCN6CC[C@]43[C@@H]65)C2)C1 [vincristine] + CCCCCCCCc1ccc(CCC(N)(CO)CO)cc1 [fingolimod] (first compound 0.0001 µM, partner dose 2 µM) | 124 | 280 | 1420 | 296 | 80.3 | 105 | 104 | 61.9 | 134 | 98.9 | 99 | 137 | 141 | 98.3 | 41.2 | 136 | 111 | 92.1 | 263
7 | CC[C@]1(O)C[C@H]2CN(CCc3c([nH]c4ccccc34)[C@@](C(=O)OC)(c3cc4c(cc3OC)N(C=O)[C@H]3[C@@](O)(C(=O)OC)[C@H](OC(C)=O)[C@]5(CC)C=CCN6CC[C@]43[C@@H]65)C2)C1 [vincristine] + CC1(C)CCC(c2ccc(Cl)cc2)=C(CN2CCN(c3ccc(C(=O)NS(=O)(=O)c4ccc(N[C@H](CCN5CCOCC5)CSc5ccccc5)c(S(=O)(=O)C(F)(F)F)c4)cc3)CC2)C1 [ABT263] (first compound 0.0001 µM, partner dose 0.4 µM) | 83.4 | 222 | 103 | 316 | 707 | 421 | 235 | 322 | 289 | 137 | 278 | 212 | 107 | 102 | 53.5 | 183 | 155 | 143 | 73.9
8 | Cc1cc(Nc2cc(N3CCN(C)CC3)nc(Sc3ccc(NC(=O)C4CC4)cc3)n2)n[nH]1 [Tozasertib] + Nc1ncn([C@H]2C[C@H](O)[C@@H](CO)O2)c(=O)n1 [decitabine] (first compound 0.006 µM, partner dose 0.1 µM) | 89.1 | 110 | 140 | 119 | 83.8 | 215 | 97.8 | 104 | 101 | 97.7 | 31.6 | 117 | 167 | 131 | 131 | 94.5 | 62.3 | 69.5 | 58.5
9 | CCCCCCCCCCCCCCCCCCOP(=O)([O-])OC1CC[N+](C)(C)CC1 [Perifosine] + CN(c1ncccc1CNc1nc(Nc2ccc3c(c2)CC(=O)N3)ncc1C(F)(F)F)S(C)(=O)=O [PF562271] (first compound 0.4 µM, partner dose 0.08 µM) | 63.6 | 84 | 143 | 418 | 83.4 | 113 | 96.4 | 99.5 | 137 | 229 | 113 | 56.3 | 119 | 119 | 42 | 53.7 | 103 | 47.7 | 38.2
10 | O=C(/C=C/c1cccnc1)NCCCCC1CCN(C(=O)c2ccccc2)CC1 + Cc1cc(Nc2cc(N3CCN(C)CC3)nc(/C=C/c3ccccc3)n2)n[nH]1 [ENMD2076] (first compound 0.01 µM, partner dose 0.04 µM) | 123 | 343 | 204 | 391 | 188 | 7280 | 100 | 661 | 701 | 1270 | 554 | 294 | 175 | 4380 | 675 | 205 | 609 | 251 | 82.8
11 | Cc1cn(-c2cc(NC(=O)c3ccc(C)c(Nc4nccc(-c5cccnc5)n4)c3)cc(C(F)(F)F)c2)cn1 [nilotinib] + COc1ccc(C2=N[C@@H](c3ccc(Cl)cc3)[C@@H](c3ccc(Cl)cc3)N2C(=O)N2CCNC(=O)C2)c(OC(C)C)c1 [Nutlin-3] (first compound 0.2 µM, partner dose 0.1 µM) | 73.8 | 135 | 73.2 | 42.6 | 72.3 | 50.2 | 87.3 | 269 | 117 | 102 | 64.9 | 119 | 40.4 | 159 | 94.6 | 57.8 | 55.9 | 197 | 110
12 | Cc1ccc(Nc2nccc(N(C)c3ccc4c(C)n(C)nc4c3)n2)cc1S(N)(=O)=O [Pazopanib] + CC(C)C[C@H](NC(=O)[C@H](Cc1ccccc1)NC(=O)c1cnccn1)B(O)O [Bortezomib] (first compound 0.4 µM, partner dose 0.001 µM) | 118 | 177 | 50.4 | 178 | 74.1 | 242 | 128 | 95.9 | 123 | 67.3 | 120 | 144 | 181 | 97 | 34.1 | 93.3 | 120 | 111 | 24.8
13 | Cc1cn(-c2cc(NC(=O)c3ccc(C)c(Nc4nccc(-c5cccnc5)n4)c3)cc(C(F)(F)F)c2)cn1 [nilotinib] + CCCCCCCCc1ccc(CCC(N)(CO)CO)cc1 [fingolimod] (first compound 0.2 µM, partner dose 2 µM) | 106 | 187 | 48.5 | 213 | 79 | 102 | 93.4 | 89.5 | 112 | 68.8 | 88.3 | 127 | 119 | 98.2 | 79.5 | 31 | 172 | 94.4 | 215
14 | N#CC[C@H](C1CCCC1)n1cc(-c2ncnc3[nH]ccc23)cn1 [ruxolitinib] + C#Cc1cccc(Nc2ncnc3cc(OCCOC)c(OCCOC)cc23)c1 [erlotinib] (first compound 1 µM, partner dose 0.8 µM) | 44.9 | 100 | 633 | 352 | 75.4 | 118 | 95.4 | 225 | 114 | 161 | 155 | 39 | 91.6 | 150 | 85.3 | 137 | 129 | 85.1 | 84.4
15 | O=C(/C=C/c1cccnc1)NCCCCC1CCN(C(=O)c2ccccc2)CC1 + CNC(=O)c1cc(Oc2ccc(NC(=O)Nc3ccc(Cl)c(C(F)(F)F)c3)cc2)ccn1 [sorafenib] (first compound 0.01 µM, partner dose 0.4 µM) | 171 | 118 | 123 | 82.3 | 79.9 | 4140 | 91 | 1170 | 572 | 1300 | 397 | 68.1 | 243 | 4040 | 211 | 106 | 452 | 113 | 223
16 | N#CC[C@H](C1CCCC1)n1cc(-c2ncnc3[nH]ccc23)cn1 [ruxolitinib] + CC[C@]1(O)C[C@H]2CN(CCc3c([nH]c4ccccc34)[C@@](C(=O)OC)(c3cc4c(cc3OC)N(C=O)[C@H]3[C@@](O)(C(=O)OC)[C@H](OC(C)=O)[C@]5(CC)C=CCN6CC[C@]43[C@@H]65)C2)C1 [vincristine] (first compound 1 µM, partner dose 0.0001 µM) | 58.1 | 44 | 93.5 | 139 | 83 | 174 | 91.6 | 81.4 | 182 | 54.5 | 129 | 87.2 | 60 | 70.7 | 77.9 | 126 | 79.9 | 172 | 164

An excerpt from above, showing only cleaved PARP positive nuclei fraction [12] [%].
Row | Structure (SMILES) | cleaved PARP positive nuclei fraction [12] [%]
6 | CC[C@]1(O)C[C@H]2CN(CCc3c([nH]c4ccccc34)[C@@](C(=O)OC)(c3cc4c(cc3OC)N(C=O)[C@H]3[C@@](O)(C(=O)OC)[C@H](OC(C)=O)[C@]5(CC)C=CCN6CC[C@]43[C@@H]65)C2)C1 [vincristine] + CCCCCCCCc1ccc(CCC(N)(CO)CO)cc1 [fingolimod] (first compound 0.0001 µM, partner dose 2 µM) | 137
7 | CC[C@]1(O)C[C@H]2CN(CCc3c([nH]c4ccccc34)[C@@](C(=O)OC)(c3cc4c(cc3OC)N(C=O)[C@H]3[C@@](O)(C(=O)OC)[C@H](OC(C)=O)[C@]5(CC)C=CCN6CC[C@]43[C@@H]65)C2)C1 [vincristine] + CC1(C)CCC(c2ccc(Cl)cc2)=C(CN2CCN(c3ccc(C(=O)NS(=O)(=O)c4ccc(N[C@H](CCN5CCOCC5)CSc5ccccc5)c(S(=O)(=O)C(F)(F)F)c4)cc3)CC2)C1 [ABT263] (first compound 0.0001 µM, partner dose 0.4 µM) | 212
